# Experimental data taken from US12246022B2, “Compositions and methods for treating, preventing or reversing age associated inflammation and disorders” (BROWN UNIVERSITY, priority 2019, dated 2025).
# At least one structure is not confirmed: it was looked up by name or label, or the drawing left a doubt.
# Experiments:
# [1] = system: L1, p16, IFN-I and SASP gene expression; assay: RT-qPCR of L1, p16, IFN-I and SASP genes in mouse tissues after drug in drinking water; assay type: in vivo
# [2] = system: age-associated phenotypes in mouse tissues; assay: Age-associated phenotypes in mouse tissues (immunofluorescence, histology, adipogenesis, thermogenesis); assay type: in vivo
# IFN-I response = IFN-I response in senescent and 3X human fibroblasts (RT-qPCR, ELISA, immunoblotting); assay type: cell-based; settings: for interferon gene expression (IFN-α, IFN-β1): drug for 1 month from 3 months in senescence
# Source text: (§1) To obtain replicatively senescent (RS) cells, LF1 cultures were serially propagated until proliferation ceased. At each passage, after reaching 80% confluence cells were trypsinized and diluted 1:4. […] In early passage cultures, the time between passages is constant at approximately 3 days. […] At this point, after reaching 80% confluence, the cells were replated at 1:2 dilution, and this time was designated as the last passage (point A in FIG. 2A). […] Under this experimental regimen, the majority of the cells in the culture enter senescence within a 3-4 weeks window centered roughly around the time of last passage (grey bar in FIG. 2A). At point B (4 weeks), the cultures were trypsinized and replated as described^60 to eliminate a small fraction of persisting contact-inhibited cells. Cultures were again replated at point C (8 weeks).
# Oncogene-induced senescence (OIS) was elicited by infecting proliferating LF1 cells with pLenti CMV RasV12 Neo (Addgene plasmid #22259). Generation of lentiviral particles and the infection procedure are described below. At the end of the infection, cells were reseeded at 15-20% confluency and selected with G418 (250 μg/ml) maintained continuously until the end of the experiment Medium was changed every 3 days until the cultures were harvested at the indicated time points. Stress-induced premature senescence (SIPS) was elicited by […] irradiation with 20 Gy given at a rate of 87 cGy/min in one fraction using a cesium-137 gamma source (Nordion Gammacell 40). Cells were 15-20% confluent at the time of irradiation. Medium was changed immediately after irradiation, and at 3-day intervals thereafter. 293T cells (Clontech) were used to package lentivirus vectors and were cultured at 37° C. in DMEM with 10% FBS under normoxic conditions (air supplemented with 5% CO2).
# (§2) The ABI ViiA 7 instrument (Applied Biosystems) was used for all experiments. qPCR of DNA was performed using the TaqMan system (Applied Biosystems) as described by Coufal et al. (2009).^64 […] of purified genomic DNA was used with the indicated primers (see Table 1). Reverse transcription qPCR (RT-qPCR) of RNA was performed using the SYBR Green system (Applied Biosystems). Polyadenylated RNA was used in all experiments assessing transcription of L1 elements, and total RNA was used for all other genes. Total RNA was harvested using the Trizol reagent (Invitrogen). Poly(A) RNA was isolated from total RNA using the NEBNext Poly(A) mRNA Magnetic Isolation Module (New England Biolabs). 1 μg of total RNA, or 10 ng of poly(A) RNA, were reverse-transcribed into cDNA in 50 μL reactions using the TaqMan kit (Applied Biosystems). To assess strand-specific transcription, the random primers in the RT reaction were substituted with a strand-specific primer to the target RNA. 1 μL of each RT reaction was used in subsequent qPCR reactions. GAPDH was used as the normalization control in experiments with human cells. The arithmetic mean of Gapdh and two additional controls (Hsp90 and GusB) was used for normalization of RT-qPCR experiments with murine tissues, with the exception of liver that was normalized to Hsp90 and GusB. For measuring L1 transcription, poly(A) RNA samples were exhaustively digested with RNase-free DNase (Qiagen) prior to the synthesis of cDNA6. Effectiveness of the DNase digestion was assessed using controls that omitted the RT enzyme.
# All the interventions in senescent cells were initiated by infecting cells at 12 weeks of senescence (point D in FIG. 6A). […]
# SASP response = assay: Senescence entry and SASP gene expression in human fibroblasts (RT-qPCR); assay type: cell-based
# Source text: as §1
# as §2, with “The arithmetic mean of Gapdh and two additional controls (Hsp90 and GusB) was used for normalization of RT-qPCR experiments with murine tissues, with the exception of liver that was normalized to Hsp90 and GusB. For measuring L1 transcription, poly(A) RNA samples were exhaustively digested with RNase-free DNase (Qiagen) prior to the synthesis of cDNA6.” left out
# cytoplasmic L1 DNA = assay: BrdU labeling and pull-down of cytoplasmic L1 DNA in senescent cells; assay type: cell-based, human; settings: BrdU 2 weeks, 7.5 μM 3TC
# L1HS sequences = assay: L1 sequence abundance (copy number) by TaqMan qPCR in senescent fibroblasts; assay type: cell-based, human; settings: LF1, IMR90, W138 fibroblasts, 5 μM in medium, 4 months in senescence
# Protocol: The ABI ViiA 7 instrument (Applied Biosystems) was used for all experiments. qPCR of DNA was performed using the TaqMan system (Applied Biosystems) as described by Coufal et al. (2009).^64 […] of purified genomic DNA was used with the indicated primers (see Table 1). Reverse transcription qPCR (RT-qPCR) of RNA was performed using the SYBR Green system (Applied Biosystems). Polyadenylated RNA was used in all experiments assessing transcription of L1 elements, and total RNA was used for all other genes. Total RNA was harvested using the Trizol reagent (Invitrogen). Poly(A) RNA was isolated from total RNA using the NEBNext Poly(A) mRNA Magnetic Isolation Module (New England Biolabs). […] Effectiveness of the DNase digestion was assessed using controls that omitted the RT enzyme.
# Primer sets 1 to 5 (Table 1, amplicons A to E in FIG. 1B) to human L1 were designed to preferentially amplify elements of the human-specific L1 HS and evolutionarily recent primate-specific L1 PA(2-6) subfamilies, as follows. […] Sequences of primers corresponding to a consensus of all the murine IFN alpha family genes, as well as to the IFNB1 gene, were obtained from the publication by Gautier et al.^71 For quantifying relative L1 genomic copy number (human cells), the TaqMan multiplex method developed by Coufal et al. (2009)^72 was used. […]
# [3] = system: L1RP retrotransposition reporter; assay: Dual luciferase L1 retrotransposition reporter in early passage LF1 cells; assay type: cell-based, human; settings: 3TC 7.5-10 μM, 4 days
# L1 mRNA = assay: L1 transcript levels by RT-qPCR of poly(A) RNA; assay type: cell-based, human; settings: senescent and 3X cells, 3TC 10 μM
# [4] = cells passaged into deep senescence with 3TC (10 μM) present throughout
smiles,measurement,setting,value
Nc1ccn([C@@H]2CS[C@H](CO)O2)c(=O)n1 [Lamivudine],gene expression at 5 months + 3TC versus no drug control,"[1]; 5 months old mice, 3TC two weeks, L1, p16, IFN-I and SASP genes",In no instance was expression at 5 months+3TC significantly different from the no drug control
same,IFN-I response and SASP pro-inflammatory state in tissues,"[1]; old mice (26 months), two weeks in drinking water",broad and significant downregulation
same,expression of L1 mRNA and p16 in tissues,"[1]; old mice (26 months), two weeks of 3TC in water, in most cases not statistically significant",weakly downregulated
same,IFN-I and SASP markers by immunofluorescence of tissue,"[2]; 26 months old male mice, white adipose, 2 weeks of 3TC",significantly reduced both IFN-1 and SASP
same,macrophage infiltration of white adipose,"[2]; old mice, 2 weeks of 3TC",returning to youthful (5 month) levels
same,adipogenesis and thermogenesis,"[2]; old mice, 2 weeks of 3TC treatment",both were increased
same,"interferon gene expression (IFN-α, IFN-β1)","IFN-I response; LF1, 10 μM",decreased IFN-I induction
same,"interferon gene expression (IFN-α, IFN-β1)","IFN-I response; LF1, 50 μM",induced an increase in the expression of interferons
same,"interferon gene expression (IFN-α, IFN-β1) in senescent cells","IFN-I response; LF1 and IMR90, 5 μM",significantly reduced
same,IFN-I response in other forms of senescence,"IFN-I response; OIS and SIPS, 7.5 μM 3TC throughout",antagonized the IFN-I response
same,interferon levels and IFN-I response,IFN-I response; late senescent and 3X cells,significantly reduced interferon levels
same,"SASP gene expression (IL-6, MMP3) in senescent cells","SASP response; LF1, 5 μM",significantly decreased
same,"magnitude of the later SASP response (CCL2, IL-6, MMP3)",SASP response; [4],significantly dampened
same,"timing of entry into senescence, induction of p21 or p16, early SASP response",SASP response; [4],did not significantly affect
same,synthesis of cytoplasmic L1 DNA,cytoplasmic L1 DNA,almost completely blocked
same,senescence-induced increase of L1 copy number,L1HS sequences,significantly prevented this increase
same,activity of a L1 retrotransposition reporter,[3],quenched the activity
same,L1 transcript levels,L1 mRNA,did not affect L1 transcript levels
